Publication PMC7577714, “Regulation of chaperone function by coupled folding and oligomerization” (Science Advances, 2020)
Results are given in words; binding and its absence hold for the method and conditions named.

Key:
Skp(A108R) (E. coli) [1] = target: Skp(A108R) (E. coli) (UniProt P0AEU7); test: solution NMR (signal intensities of monomer and trimer); Skp variants alone at 37°C, 20 mM MES pH 6.5, 150 mM NaCl; monomer to trimer; both purified
Skp(A108R) (E. coli) [2] = target: Skp(A108R) (E. coli) (UniProt P0AEU7); test: SEC-MALS; Skp variants alone, elution concentration ≃80 μM, 25°C, 20 mM MES pH 6.5, 150 mM NaCl; monomer to trimer; both purified
Skp(A108R) (E. coli) [3] = target: Skp(A108R) (E. coli) (UniProt P0AEU7); test: solution NMR (signal intensities of monomer and trimer) + SEC-MALS; fraction of monomer against total Skp concentration, 25°C, 20 mM MES pH 6.5, 150 mM NaCl; monomer to trimer; C0.5 is the protein concentration at which half of the molecules are monomeric; both purified

B1: Skp(A108R) (natural protein, E. coli, UniProt P0AEU7 21-161, looked up)
chain: ADKIAIVNMGSLFQQVAQKTGVSNTLENEFKGRASELQRMETDLQAKMKKLQSMKAGSDRTKLEKDVMAQRQTFAQKAQAFEQDRARRSNEERGKLVTRIQTAVKSVRNSQDIDLVVDANAVAYNSSDVKDITADVLKQVK
notes: Fully monomeric up to 1 mM; source: E. coli BL21-(λ DE3)-Lemo, purified (Ni-NTA, SEC); not shown: His6, N-terminal, kept
In the case of B1, the binding (Skp(A108R) (E. coli) [1]) is reported as “no binding”, the binding (Skp(A108R) (E. coli) [2]) is reported as “no binding (tested: ≃80 μM)” and the binding (Skp(A108R) (E. coli) [3]) is reported as “no binding (tested: up to 1 mM; C0.5 >1000 μM)”.
